Drawing on publication PMC7819943, “Rice protein-binding microarrays: a tool to detect cis-acting elements near promoter regions in rice”, this text covers binding signal for 54 sequences.

Chains of the proteins cited; added tags and fusions are not shown.
UniProt Q0JBA9, entry or part of it: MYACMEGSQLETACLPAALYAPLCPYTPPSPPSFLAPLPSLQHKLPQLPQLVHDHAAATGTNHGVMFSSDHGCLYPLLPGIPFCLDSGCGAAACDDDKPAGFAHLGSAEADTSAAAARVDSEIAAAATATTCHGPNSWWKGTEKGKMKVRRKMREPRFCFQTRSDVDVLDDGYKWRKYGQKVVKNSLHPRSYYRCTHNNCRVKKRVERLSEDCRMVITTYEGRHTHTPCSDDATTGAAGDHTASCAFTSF

This is one part of the list.

For the test, the target named is OsWRKY34 (Oryza sativa, UniProt Q0JBA9 1-250). In words: protein-binding microarray (RPBM); PBS, 2% BSA, 51.3 ng/ul salmon testes DNA, 50 uM zinc acetate, 200 nM TF, 25 C, 1 h; high values mean tight binding. The settings on record: protein: recombinant; tags: N-terminal polyhistidine and DsRed monomer fusion (pET32a); label: CyDye5-dUTP incorporated in the synthesized complementary strand; 3' TTTTT single-stranded linker to array surface; dsDNA, one strand shown. The gist of the method: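 Per-feature fluorescence intensity (arbitrary units), read on an Axon 4000B scanner, is the binding signal. Transcription factors carrying an N-terminal polyhistidine tag and DsRed fusion were expressed in E. coli BL21-CodonPlus and purified on Ni–NTA. A custom Agilent array, made double-stranded by primer extension with Cy5-dUTP and blocked with 2% BSA, was incubated with 200 nM protein in PBS, 2% BSA, salmon testes DNA and 50 µM zinc acetate at 25 °C for 1 h and then washed.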
For the sequence “ATATAGCTTGCTTGTTCGGTTGTTCCACTGTTCCGTGAGGCGGAGTCACCTAGTGCAG”, the binding signal was 8310 fluorescence intensity (a.u.).
Regarding “CAAGTAGCCAATCCGAACGCATCCCCGTCTTTCTTTCTTTCGGAGTCACCTAGTGCAG”, the binding signal is 12400 fluorescence intensity (a.u.).
Regarding “ACATGCGTACAACGAGCCGTATTTTTTTTCCCTTGCATCACGGAGTCACCTAGTGCAG”, the binding signal was 8210 fluorescence intensity (a.u.).
Regarding “GCCTATACCCTCTGCTGTCCGCACCCGTTTTTCTACTGGACGGAGTCACCTAGTGCAG”, the binding signal is 8040 fluorescence intensity (a.u.).
Take “TTTCTGAAGACCAAACTGCTTCTAATTCTTCTTCTTCTTCCGGAGTCACCTAGTGCAG”: the binding signal was 8930 fluorescence intensity (a.u.).
Regarding “GTTTGACATGCAGACTTGATTCTATCACCTATAGCATCTGCGGAGTCACCTAGTGCAG”, the binding signal is 28100 fluorescence intensity (a.u.).
As to “AGATGACGCCATTGACTTTTTCTCACATGTTTGACCATTCCGGAGTCACCTAGTGCAG”, the binding signal was 15800 fluorescence intensity (a.u.).
“CAGCGCTGCCGCAGATAGGACGCCCTAACTTTGATCATCTCGGAGTCACCTAGTGCAG”: the binding signal is 8920 fluorescence intensity (a.u.).
In the case of “CTAGCGGCTTCCTCTCCATGCGCCAGGGCCTCGACACCGCCGGAGTCACCTAGTGCAG” it was 9510 fluorescence intensity (a.u.).
In the case of “TTTTTTGGTTTTCTTATAGAATCGGATCTATGTTTTTTTTCGGAGTCACCTAGTGCAG”, the binding signal was 9770 fluorescence intensity (a.u.).
Turning to “ACCTGGTACGCATGAATCCTGCGACCATATTGTTTACCTCCGGAGTCACCTAGTGCAG”, the binding signal was 9990 fluorescence intensity (a.u.).
The result for “ATCTATCATTTATGTTTTTAACATATGACTTGTTCAGTCCCGGAGTCACCTAGTGCAG” reads 8370 fluorescence intensity (a.u.).
“ATAGTTTTTTTTTTCTGTTCTGTTTTTGGCGATTGTTTTCCGGAGTCACCTAGTGCAG”: the binding signal is 8120 fluorescence intensity (a.u.).
Consider “CTCTCAACTTGTTGCCCATTTCTTCTTCGTCGTTGCCCGTCGGAGTCACCTAGTGCAG”, for which the binding signal is 8340 fluorescence intensity (a.u.).
“CCTCTAGACCCTTAGGAAAACCCTTCTTTTCGTGCTTCCCCGGAGTCACCTAGTGCAG”: the binding signal was 8160 fluorescence intensity (a.u.).
In the case of “TCCCTAGCAATATACTCTGCTTTGCTTTTCCTTGACTTTCCGGAGTCACCTAGTGCAG” it was 9600 fluorescence intensity (a.u.).
Turning to “GCCGACTCTTACTCCTCCGCCCACTCACCACGCGCGCTGCCGGAGTCACCTAGTGCAG”, the binding signal is 11000 fluorescence intensity (a.u.).
In the case of “GCACTTCCATCGATCTCTCTCCTCGCCACGGGCCACGGCCCGGAGTCACCTAGTGCAG” it was 10500 fluorescence intensity (a.u.); in that of “CCTCTCATTTTAAATGTATTTGTGGTTTGTATATCCAACACGGAGTCACCTAGTGCAG”, 10700 fluorescence intensity (a.u.).
For “CCCCGCCCGCACCACCGTTTCCTTTTCCAACGACTTCTTCCGGAGTCACCTAGTGCAG”, the binding signal was 10700 fluorescence intensity (a.u.).
As for “CCGCCGCCGCCTCCTCACCCGCTGCGCGCTCGCCGCCGTGCGGAGTCACCTAGTGCAG”, the binding signal is 8850 fluorescence intensity (a.u.).
For the sequence “GACGATATGTAACACCCTCGTCACATTTACCATTTATACACGGAGTCACCTAGTGCAG”, the binding signal is 8270 fluorescence intensity (a.u.).
The result for “CTCGACCGCCGCTGCCTCCTCGCCGCCCTCGACCGCCGACCGGAGTCACCTAGTGCAG” reads 12100 fluorescence intensity (a.u.); that for “GCAGCATCACCCGCAGCCGCCGCCGCCGCCGCCATGGACTCGGAGTCACCTAGTGCAG”, 10100 fluorescence intensity (a.u.); that for “TATATCGAAGCAAATTCCCACCATAGATTTTACCTTACCTCGGAGTCACCTAGTGCAG”, 8240 fluorescence intensity (a.u.).
In the case of “ATCTGTTTTTTTTTTCTGAAGAGAAGCATATACTTATTTCCGGAGTCACCTAGTGCAG” it was 9500 fluorescence intensity (a.u.).
For “ACCGACGAATCCCGGCACATCACCGTCACATGGCCATACCCGGAGTCACCTAGTGCAG”, the binding signal is 10000 fluorescence intensity (a.u.).
On to “TTAGTTTGCATCATTGCAGTGCATGTACCTTCCAGAGCTACGGAGTCACCTAGTGCAG”, for which the binding signal is 8600 fluorescence intensity (a.u.).
On to “ACCTAATCCCACAGCTGGTCGCGACGTGGTCTGAAAACGTCGGAGTCACCTAGTGCAG”, for which the binding signal was 8320 fluorescence intensity (a.u.).
For the sequence “TGGTGGTGGTGGGGAGCGGCCTTTATCCGTGGCGTTGGCACGGAGTCACCTAGTGCAG”, the binding signal is 15000 fluorescence intensity (a.u.).
As for “TCAGCTCTACTACACTGCTAACCTCTCCGGTCATAAGTGCCGGAGTCACCTAGTGCAG”, the binding signal was 10000 fluorescence intensity (a.u.).
For “GACTCAACTTGTCCAACAATATATGGCCTTTTAAGTTTTTCGGAGTCACCTAGTGCAG”, the binding signal is 8980 fluorescence intensity (a.u.).
“CCTCCCTTGTTTTCTGTACCAATACGTGATGCACCGGTCTCGGAGTCACCTAGTGCAG”: the binding signal is 8440 fluorescence intensity (a.u.).
For the sequence “GAGTGGGTGTGGGTTTTCTAGTGGGCAGATTTAGTTTTAACGGAGTCACCTAGTGCAG”, the binding signal is 17200 fluorescence intensity (a.u.).
On to “ATTTCGTTTCTTTCTTTCTTTTTCTTCTTTTAAAAGGGACCGGAGTCACCTAGTGCAG”, for which the binding signal is 9130 fluorescence intensity (a.u.).
For “TTTCTTTATGTCAGTCCTCTTTTGGTAGCAATTTTACTGGCGGAGTCACCTAGTGCAG”, the binding signal was 8980 fluorescence intensity (a.u.).
The result for “AGCTAGGAAGAATCTCGCCTTTACATCGCAGTCCAATTCTCGGAGTCACCTAGTGCAG” reads 10500 fluorescence intensity (a.u.).
In the case of “TCGATATAGGTTTTGTGGTTGGAGGATATGGATCATACTCCGGAGTCACCTAGTGCAG” it was 8350 fluorescence intensity (a.u.).
The result for “CTTTGGGTACTTTGCCGCTCGCACTTCTTTTGCACAGCTCCGGAGTCACCTAGTGCAG” reads 13800 fluorescence intensity (a.u.); that for “AATGTATTTTACTCTTTTAATGCACTACTGTTTCTTTTTTCGGAGTCACCTAGTGCAG”, 8480 fluorescence intensity (a.u.); that for “AACCTACTATTAGCCCGTCCAGGTCATCACAATCTGAGCTCGGAGTCACCTAGTGCAG”, 10000 fluorescence intensity (a.u.).
With “GCTTCTGTTAACCCTTAGTATGACCTCATTGTTGTCCGTCCGGAGTCACCTAGTGCAG”, the binding signal was 11000 fluorescence intensity (a.u.).
The result for “GACTGTAAATTGTTGTTTCTTTTTTTTTTTCATATTTTTTCGGAGTCACCTAGTGCAG” reads 12900 fluorescence intensity (a.u.); that for “CCGTTCACATCATTTACACAGTATCTCAACATATATCCATCGGAGTCACCTAGTGCAG”, 8400 fluorescence intensity (a.u.); that for “GCTGGTGCGGGTGCCCGTCGTGTGTGTGTTTCGTTGCTGCCGGAGTCACCTAGTGCAG”, 9850 fluorescence intensity (a.u.).
As to “CACTAAAGTCAAACCCCATGTGTAACTGCTCACACTCTTTCGGAGTCACCTAGTGCAG”, the binding signal is 10300 fluorescence intensity (a.u.).
With “AATAGCAGCTCTCTCCAGGTTACTACTCCTGTTACTAACCCGGAGTCACCTAGTGCAG”, the binding signal is 8540 fluorescence intensity (a.u.).
Regarding “GTGGCCGGAGCCATGGGAGGGAGGGGTGGCAGTTGTCGGACGGAGTCACCTAGTGCAG”, the binding signal was 13200 fluorescence intensity (a.u.).
As for “TTTATTTTTCGTAAAATGTTCCCTTACATTATTCCCATGTCGGAGTCACCTAGTGCAG”, the binding signal is 9390 fluorescence intensity (a.u.).
In the case of “TCTCCACTTAAATACTATGTTTCCCTATTTTTTCACTCTCCGGAGTCACCTAGTGCAG” it was 8310 fluorescence intensity (a.u.); in that of “CTTTTATTTTTGTGGTTAGTGTACCTTTTTTTGCTAATATCGGAGTCACCTAGTGCAG”, 12900 fluorescence intensity (a.u.).
Turning to “CTTGTTTTAGAGTACTGAGAGTTAGCTGTTGACCATCTACCGGAGTCACCTAGTGCAG”, the binding signal was 9390 fluorescence intensity (a.u.).
In the case of “TCCCCTCTCTGTTGTCATCGTCTTCCTTTCCTTTCCTTTCCGGAGTCACCTAGTGCAG”, the binding signal is 8230 fluorescence intensity (a.u.).
Regarding “GAGTAGTTCGCTTTGGCAGTATGGCATTTGTACACGCTCACGGAGTCACCTAGTGCAG”, the binding signal was 8660 fluorescence intensity (a.u.).
